Reference: PubChem BioAssay AID624297 (National Center for Advancing Translational Sciences (NCATS), 2012)
About 6,200 (1.8%) of roughly 340,000 compounds were called active. The shares of active, inactive and inconclusive entries below differ from those in the screen. Calls follow the shape of the dose curve; as a rule, active = well fitted activation curve with a large enough effect; inconclusive = small, poorly fitted or top-dose-only effect; inactive = no such curve, though single readings can be large or run the other way. Potencies of inconclusive entries are doubtful fits and often do not repeat.
Potency is read from the fitted curve at half-maximal effect.

Test: A quantitative high throughput screen for small molecules that induce DNA re-replication in SW480 colon adenocarcinoma cells. Also: nearly all actives have a fitted effect of over 55% in size. As to re-replication activation: % of control where 0% means no effect.
Conditions: Hoechst DNA content imaging, 48 h; re-replication activation: at 46.1 µM (top of the series) unless noted
Summary of the method: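 250 cells/well; 23 nL cpd via pin tool; 48 hr, 37 C, 5% CO2; Hoechst 40 min; imager read of total nuclear intensity, ex 405/em 500-530 nm.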
In the case of `NS(=O)(=O)c1cccc(NC(=O)CSc2nnnn2-c2ccccc2)c1`, the “re-replication activation” value is reported as inactive: 112%.
For `O=C1C2C3C=CC(C3)C2C(=O)N1c1ccc(N2CCN(c3ccccn3)CC2)c([N+](=O)[O-])c1` (stereo unspecified), the Potency was inconclusive: 20.6 µM [activator, single point].
For `O=C(NNC(=S)NC1CC2C=CC1C2)c1cccnc1` (stereo unspecified), the Potency was inconclusive: 29.1 µM [activator, single point].
For `Cc1noc(C)c1COc1ccccc1C(=O)N1CCN(c2cccc(Cl)c2)CC1`, the Potency was inconclusive: 29.1 µM [activator, single point].
In the case of `Cc1ccc(CNC(=O)c2sccc2-n2cccc2)cc1`, the Potency is reported as inconclusive: 18.4 µM [activator, partial curve, poor fit].
With `CCC[C@@H]1CCCO[C@@](C(=O)NCCN2CCOCC2)(C(F)(F)F)C1` the Potency was inconclusive: 18.4 µM [activator, partial curve, poor fit].
In the case of `O=C(COC(=O)Cc1c(F)cccc1Cl)Nc1nnc(-c2ccccc2)o1`, the Potency is reported as inconclusive: 25.9 µM [activator, single point].
For `O=C(NC1(C(F)(F)F)N=C2SCCN2C1=O)c1cccnc1` (stereo unspecified), the Potency was inconclusive: 6.51 µM [activator, partial curve, poor fit].
For `Cc1ccc2[nH]c3c(=O)[nH]ncc3c2c1`, the Potency was inconclusive: 11.6 µM [activator, partial curve, poor fit].
With `Cc1cc(C)cc(N(CCC(=O)O)S(=O)(=O)c2ccc(Cl)cc2)c1` the “re-replication activation” value was inactive: -29.1%.
For `O=C(NCc1ccco1)C1CC(=O)N(c2ccc(O)cc2)C1` (stereo unspecified), the Potency was inconclusive: 29.1 µM [activator, single point].
In the case of `Cc1ccc(/C=C/C(=O)Nc2cc(S(=O)(=O)N3CCOCC3)ccc2N2CCOCC2)cc1`, the Potency is reported as inconclusive: 18.4 µM [activator, single point].
With `Cc1ccc2nc(-c3ccc(SCC(=O)Nc4nc(C)cs4)nc3)[nH]c2c1` the “re-replication activation” value was inactive: 7.78%.
For `N=c1c(C(=O)NCc2ccc(F)cc2)cc2c(=O)n3ccccc3nc2n1CC1CCCO1` (stereo unspecified), the Potency was active: 2.91 µM.
In the case of `O=C(COC(=O)c1nc(Cl)c(Cl)c(Cl)c1Cl)NCc1ccccc1`, the Potency is reported as active: 16.4 µM.
With `COc1ccccc1C1CC(c2ccco2)=NN1c1ccccc1` (stereo unspecified) the Potency was inconclusive: 15.8 µM [activator, single point].
In the case of `CCCCCN(C(=O)CCC(=O)OCc1ccccc1F)c1c(N)n(CCCC)c(=O)[nH]c1=O`, the “re-replication activation” value is reported as inactive: -0.54%.
With `COc1ccc(S(=O)(=O)N2CCCCC2)cc1NS(=O)(=O)c1cc(Cl)ccc1Cl` the Potency was active: 23.1 µM.
For `COc1ccc(C(=O)CCN2CCN(c3ccccc3OC)CC2)cc1`, the Potency was inconclusive: 6.51 µM [activator, partial curve].
In the case of `O=[N+]([O-])c1ccc2oc(C3CCCCC3)nc2c1`, the Potency is reported as inconclusive: 6.51 µM [activator, single point].
For `CC(NC(=O)c1ccccc1Cl)NC(=O)c1ccccc1Cl`, the Potency was inconclusive: 29.1 µM [activator, single point].
With `CN(Cc1ccc(Cl)cc1)C(=O)c1ccccc1SCC(=O)N1CCCC1` the “re-replication activation” value was inactive: -3.17%.
With `O=C1/C(=C\c2ccc(O)c(O)c2)C(c2ccccc2)=NN1c1ccccc1` the Potency was inconclusive: 29.1 µM [activator, single point].
For `COc1ccc(Nc2cccc3ccccc23)cc1`, the Potency was inconclusive: 0.366 µM [activator, full curve].
For `Cc1ccccc1NC(=S)N(CCCN1CCOCC1)Cc1cccnc1`, the Potency was inconclusive: 0.13 µM [activator, single point].
For `Cn1cc(/C=N/n2cnc3scc(-c4ccc(Cl)cc4)c3c2=O)c2ccccc21`, the Potency was active: 0.58 µM.
With `Cc1cc(SCNC(=O)c2ccccc2)ncn1` the Potency was inconclusive: 16.4 µM [activator, single point].
With `CCC1CCCCN1C(=O)CCCc1ccccc1` (stereo unspecified) the Potency was inconclusive: 5.17 µM [activator, partial curve].
For `C#CCOC(=O)c1ccccc1C(=O)n1nnc2ccccc21`, the Potency was inconclusive: 29.1 µM [activator, single point].
With `CCOc1ccc(CN2CCN(C(=O)c3cccc4ccccc34)CC2)cc1` the “re-replication activation” value was inactive: -43.3%.
For `COc1cc(OC)cc(-c2c(C#Cc3ccsc3)c3cc(-c4ccc5cc[nH]c5c4)ccc3n2C)c1`, the “re-replication activation” value was inactive: 9%.
For `CN(C1CCCC1)C1CCN(C(=O)CNC(=O)/C=C/c2ccc(F)cc2)CC1`, the Potency was inconclusive: 20.6 µM [activator, single point].
For `COc1cc(/C=C2\CC/C(=C\c3cc(OC)c(O)c(OC)c3)C2=O)cc(OC)c1O`, the Potency was inconclusive: 29.1 µM [activator, single point].
For `COC(=O)C1=CN(Cc2ccc(OC)c(OC)c2)C=C(C(=O)OC)C1c1cccc(OC)c1OC`, the Potency was inconclusive: 18.4 µM [activator, partial curve, poor fit].
With `CC(C)C(NC(=O)/C=C/c1cccc([N+](=O)[O-])c1)C(C)C` the “re-replication activation” value was inactive: -1.11%.
With `CCC(C)(C)NC(=O)c1ccccc1Oc1ccccc1` the Potency was inconclusive: 0.461 µM [activator, partial curve, poor fit].
In the case of `COc1ccc(OC)c(NC(=S)NCCSc2ccc(C)cc2)c1`, the “re-replication activation” value is reported as inactive: -0.283%.
With `O=C1CN(C(=O)c2cccc(Br)c2)c2ccccc2N1` the Potency was inconclusive: 20.6 µM [activator, single point].
With `O=C(CNS(=O)(=O)c1ccc(Br)s1)NCc1ccccc1` the Potency was active: 2.82 µM.
In the case of `N#CC1=C2SCC(O)(c3ccccc3)N2C(=O)CC1c1ccccc1F` (stereo unspecified), the Potency is reported as inconclusive: 18.4 µM [activator, single point].
In the case of `O=c1oc2ccccc2cc1-c1cn(-c2ccccc2)c(=S)[nH]1`, the Potency is reported as active: 9.2 µM.
In the case of `Cc1sc(NC(=O)COc2cccc(-n3cnnn3)c2)c(C#N)c1C`, the Potency is reported as inconclusive: 29.1 µM [activator, single point].
In the case of `COc1ccc(CNC(=S)NCc2ccc(OC(C)C)cc2)cc1`, the Potency is reported as inconclusive: 29.1 µM [activator, single point].
With `COc1ccc(C(=O)NCC(=O)OCCOc2ccc(Cl)cc2)cc1OC` the “re-replication activation” value was inactive: 1.56%.
With `Cc1nn(C)c(C(=O)NNC(=S)NC2CCCCC2)c1Cl` the Potency was inconclusive: 0.0326 µM [activator, full curve, poor fit].
With `O=C(O)CCCCn1c(SCC(=O)Nc2ccccc2C(F)(F)F)nc2ccsc2c1=O` the Potency was “inactive”.
In the case of `COc1ccc(OC)c(NC(=O)NCCc2c[nH]c3ccccc23)c1`, the “re-replication activation” value is reported as inactive: -2%.
With `Cc1ccc(OCCCn2cc(C#N)c3ccccc32)cc1` the Potency was inconclusive: 29.1 µM [activator, partial curve, poor fit].
For `CC1=Nc2cc(C(=O)NCCCOC(C)C)ccc2Sc2ccccc21`, the Potency was inconclusive: 13 µM [activator, partial curve, poor fit].
For `CN(C)CC/C=C1/c2ccccc2Sc2c(O)cc(Cl)cc21`, the Potency was inconclusive: 25.9 µM [activator, single point].
In the case of `C/C(=N/NC(=O)c1cccc(C)c1)c1c(O)cc(C)oc1=O`, the “re-replication activation” value is reported as inactive: -4.68%.
In the case of `CN(Cc1cccnc1)C(=O)c1cc(S(=O)(=O)Nc2ccccc2F)ccc1Cl`, the “re-replication activation” value is reported as inactive: 9.99%.
For `C/C(=N\NC(=O)CC1N=C(Cc2ccccc2)NNC1=O)c1ccc(Br)cc1` (stereo unspecified), the Potency was inconclusive: 29.1 µM [activator, single point].
For `CCOc1ccc(-c2nnn(CC(=O)NCc3ccc(C)cc3)n2)cc1`, the Potency was inconclusive: 4.11 µM [activator, full curve, poor fit].
With `COCCN1CCN(C(=O)c2cc(COc3ccc(F)cc3F)on2)CC1` the Potency was inconclusive: 0.651 µM [activator, full curve, poor fit].
For `CC(NCc1cccnc1)c1ccccc1` (stereo unspecified), the Potency was inconclusive: 18.4 µM [activator, single point].
In the case of `CS(=O)(=O)C1=NSC2=NC(=O)/C(=C\c3ccc(-c4ccccc4)o3)C(=N)N21`, the “re-replication activation” value is reported as inactive: -7.21%.
For `COC(=O)[C@@]12CCCCN1[C@H](c1ccc(-c3ccc(F)cc3)cc1)[C@@H]1C(=O)N(C)C(=O)[C@@H]12`, the Potency was inconclusive: 25.9 µM [activator, partial curve, poor fit].
In the case of `CCCCC(=O)NNC(=S)NC(=O)CCC`, the “re-replication activation” value is reported as inactive: -1.33%.
In the case of `CC(C)C(=O)OCc1cn(-c2ccc(Cl)c(Cl)c2)nn1`, the “re-replication activation” value is reported as inactive: -6.58%.
In the case of `Cc1c(N)cccc1N`, the “re-replication activation” value is reported as inactive: -6.05%.
With `CCOC(=O)C1(CCOc2ccccc2)CCN(Cc2ccc(OC)c(O)c2)CC1` the Potency was inconclusive: 29.1 µM [activator, partial curve, poor fit].
In the case of `O=[N+]([O-])c1cc(S(=O)(=O)NCCN2CCOCC2)ccc1Cl`, the Potency is reported as inconclusive: 29.1 µM [activator, single point].
For `CCOC(=O)N1CCN(C(=O)C2CCC(=O)N(Cc3cccc(C(F)(F)F)c3)C2)CC1` (stereo unspecified), the “re-replication activation” value was inactive: 7.66%.
With `Cc1ccc(NC(=O)CN2C(=O)/C(=C\c3cccs3)SC2=S)cc1` the Potency was inconclusive: 1.46 µM [activator, full curve].
In the case of `Cc1ccccc1CNc1ccc(C(CC(N)=O)NC(=O)c2ccccc2)cc1[N+](=O)[O-]` (stereo unspecified), the Potency is reported as inconclusive: 32.6 µM [activator, partial curve, poor fit].
For `S=c1[nH]nc(-c2cc(-c3ccccc3)n[nH]2)n1/N=C/c1ccccc1`, the Potency was inconclusive: 29.1 µM [activator, single point].
With `Cc1cc(C)n(-c2nc(SCC(=O)O)c3c4c(sc3n2)COC(C)(C)C4)n1` the “re-replication activation” value was inactive: 10.1%.
With `O=C1CC(NNc2ccccc2)C(=O)N1c1ccc(N2CCCCC2)cc1` (stereo unspecified) the Potency was inconclusive: 16.4 µM [activator, single point].
For `Cc1[nH]c2ccc(F)cc2c1CCN(Cc1cccnc1)C(=S)Nc1cccc(F)c1`, the “re-replication activation” value was inactive: 19.5%.
For `CCn1c(NCc2ccc(OC)cc2)nc2ccccc21`, the Potency was inconclusive: 0.103 µM [activator, full curve, poor fit].
